These are yes or no findings as the source states them, for the method shown. Binding seen in cells or lysates may run through a third protein. Some results given as binding are weak or reduced against the parent protein; the word gives no strength.
Molecular target: C-terminal small BiT-fused PTH1R (PTH1R-Sm) (human) (UniProt Q03431)
Test: split reporter; NanoBiT β-arrestin recruitment assay in transfected cells, Lg-β-arrestin 1 or 2 with PTH1R-Sm, stimulation with PTH, room temperature, luminescence 13–15 min after ligand

The chains behind the UniProt entries cited, without tags or fusion partners. Residues count along the entry.
UniProt Q03431, residues 27-593: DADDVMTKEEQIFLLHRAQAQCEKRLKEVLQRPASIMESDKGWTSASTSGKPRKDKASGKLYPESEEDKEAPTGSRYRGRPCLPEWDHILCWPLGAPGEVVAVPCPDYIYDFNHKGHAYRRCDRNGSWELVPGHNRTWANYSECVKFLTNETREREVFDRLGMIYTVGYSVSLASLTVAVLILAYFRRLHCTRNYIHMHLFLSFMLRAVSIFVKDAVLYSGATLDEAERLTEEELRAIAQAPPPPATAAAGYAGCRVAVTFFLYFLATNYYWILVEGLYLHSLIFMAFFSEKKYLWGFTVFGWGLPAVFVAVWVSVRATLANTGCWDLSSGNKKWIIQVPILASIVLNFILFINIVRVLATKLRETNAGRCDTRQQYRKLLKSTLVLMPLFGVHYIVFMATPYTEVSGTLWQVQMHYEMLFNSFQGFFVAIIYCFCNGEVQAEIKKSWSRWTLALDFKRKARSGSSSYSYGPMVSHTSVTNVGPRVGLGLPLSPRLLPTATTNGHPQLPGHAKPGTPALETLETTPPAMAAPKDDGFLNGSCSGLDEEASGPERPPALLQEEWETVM
UniProt P32121: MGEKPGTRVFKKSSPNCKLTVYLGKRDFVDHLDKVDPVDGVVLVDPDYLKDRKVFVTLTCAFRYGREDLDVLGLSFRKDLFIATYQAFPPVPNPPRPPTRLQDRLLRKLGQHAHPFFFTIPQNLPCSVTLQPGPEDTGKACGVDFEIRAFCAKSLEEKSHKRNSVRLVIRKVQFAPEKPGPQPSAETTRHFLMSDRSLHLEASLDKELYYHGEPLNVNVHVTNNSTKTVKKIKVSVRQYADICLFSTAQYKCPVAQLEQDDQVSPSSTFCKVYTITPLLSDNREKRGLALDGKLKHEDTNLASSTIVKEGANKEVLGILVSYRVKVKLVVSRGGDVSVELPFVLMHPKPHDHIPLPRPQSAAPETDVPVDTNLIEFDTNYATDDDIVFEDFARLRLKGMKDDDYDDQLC

With “N-terminal large BiT-fused β-arrestin 2 (Lg-β-arrestin 2) (from UniProt P32121 1-409)” the binding was “binds”.

From PMC10307627
